From the odorant receptor screen of Mainland et al. (2015)
Several values for one entry are separate records, joined by “and”; a condition that tells them apart may be missing. Equal values may be shown once. The list shows a part of the results. Each value is one well over the wells without odorant, computed here; the data are noisy.

Tests used:
Assay in all cases: odorant receptor activation (CRE luciferase / Renilla) (fold of no-odor wells); higher = more activation
Conditions in all cases: 100 µM
OR4M2 clone 1278 = system: OR4M2 clone 1278
OR4N2 clone 1270 = system: OR4N2 clone 1270
OR4N4 clone 1277 = system: OR4N4 clone 1277
OR4N5 clone 1262 = system: OR4N5 clone 1262
OR4P4 R231C clone 1398 = system: OR4P4 R231C clone 1398
OR4P4 clone 1139 = system: OR4P4 clone 1139
OR4Q3 clone 1411 = system: OR4Q3 clone 1411
OR4S1 clone 1283 = system: OR4S1 clone 1283
OR4S2 clone 1175 = system: OR4S2 clone 1175
OR4X2 clone 1193 = system: OR4X2 clone 1193

`c1cnccn1` [pyrazine] gave an odorant receptor activation (OR4M2 clone 1278) of 0.885, an odorant receptor activation (OR4N2 clone 1270) of 0.856 and an odorant receptor activation (OR4N4 clone 1277) of 0.852. For the same compound, the odorant receptor activation (OR4N5 clone 1262) was 0.686, the odorant receptor activation (OR4P4 R231C clone 1398) was 0.963 and the odorant receptor activation (OR4P4 clone 1139) was 0.89. It also gave an odorant receptor activation (OR4Q3 clone 1411) of 1.36, an odorant receptor activation (OR4S1 clone 1283) of 0.766 and an odorant receptor activation (OR4S2 clone 1175) of 0.974. For the same compound, the odorant receptor activation (OR4X2 clone 1193) was 0.885.

For `CC(=O)OC(C)(C)C1CC=C(C)CC1` (stereo not given) [terpinyl acetate], the odorant receptor activation (OR4M2 clone 1278) was 1.17, the odorant receptor activation (OR4N2 clone 1270) was 1.04 and the odorant receptor activation (OR4N4 clone 1277) was 0.998. For the same compound, the odorant receptor activation (OR4N5 clone 1262) was 0.863, the odorant receptor activation (OR4P4 R231C clone 1398) was 0.767 and the odorant receptor activation (OR4P4 clone 1139) was 1.37. It also gave an odorant receptor activation (OR4Q3 clone 1411) of 1.06, an odorant receptor activation (OR4S1 clone 1283) of 0.89 and an odorant receptor activation (OR4S2 clone 1175) of 1.19. The odorant receptor activation (OR4X2 clone 1193) was 1.03.

With `CCCCCCCC=O` [octyl aldehyde] the odorant receptor activation (OR4M2 clone 1278) was 1.23, the odorant receptor activation (OR4N2 clone 1270) was 0.881 and the odorant receptor activation (OR4N4 clone 1277) was 1.18. The odorant receptor activation (OR4N5 clone 1262) was 1.08, the odorant receptor activation (OR4P4 R231C clone 1398) was 0.832 and the odorant receptor activation (OR4P4 clone 1139) was 1.06. For the same compound, the odorant receptor activation (OR4Q3 clone 1411) was 0.747, the odorant receptor activation (OR4S1 clone 1283) was 1.13 and the odorant receptor activation (OR4S2 clone 1175) was 0.991. The odorant receptor activation (OR4X2 clone 1193) was 1.47.

With `CC=Cc1ccc(O)c(OC)c1` [isoeugenol] the odorant receptor activation (OR4M2 clone 1278) was 1.7 and 1.24, the odorant receptor activation (OR4N2 clone 1270) was 1.3 and 1.11 and the odorant receptor activation (OR4N4 clone 1277) was 1.06 and 1.3. The odorant receptor activation (OR4N5 clone 1262) was 1.22 and 0.864, the odorant receptor activation (OR4P4 R231C clone 1398) was 1.17 and the odorant receptor activation (OR4P4 clone 1139) was 0.77. For the same compound, the odorant receptor activation (OR4Q3 clone 1411) was 1.36, the odorant receptor activation (OR4S1 clone 1283) was 1.26 and 1.96 and the odorant receptor activation (OR4S2 clone 1175) was 1.57. For the same compound, the odorant receptor activation (OR4X2 clone 1193) was 0.856.

In the case of `CC1=CCC(C(C)(C)O)CC1` (stereo not given) [terpineol], the odorant receptor activation (OR4M2 clone 1278) is reported as 1.22, the odorant receptor activation (OR4N2 clone 1270) is reported as 0.946 and the odorant receptor activation (OR4N4 clone 1277) is reported as 0.918. For the same compound, the odorant receptor activation (OR4N5 clone 1262) was 1, the odorant receptor activation (OR4P4 R231C clone 1398) was 0.88 and the odorant receptor activation (OR4P4 clone 1139) was 1.13. The odorant receptor activation (OR4Q3 clone 1411) was 1.17, the odorant receptor activation (OR4S1 clone 1283) was 0.858 and the odorant receptor activation (OR4S2 clone 1175) was 1.24. For the same compound, the odorant receptor activation (OR4X2 clone 1193) was 1.09.

`O=C1CCCCCCCCCCCCCCO1` [pentadecalactone] showed an odorant receptor activation (OR4M2 clone 1278) of 0.69, an odorant receptor activation (OR4N2 clone 1270) of 0.853 and an odorant receptor activation (OR4N4 clone 1277) of 0.818. For the same compound, the odorant receptor activation (OR4N5 clone 1262) was 0.702, the odorant receptor activation (OR4P4 R231C clone 1398) was 0.91 and the odorant receptor activation (OR4P4 clone 1139) was 0.735. The odorant receptor activation (OR4Q3 clone 1411) was 1.13, the odorant receptor activation (OR4S1 clone 1283) was 0.737 and the odorant receptor activation (OR4S2 clone 1175) was 0.793. For the same compound, the odorant receptor activation (OR4X2 clone 1193) was 0.743.

`CC12C=CCC1C1CCC3=CC(=O)CCC3(C)C1CC2` (stereo not given) [androstadienone] was tested, and the odorant receptor activation (OR4M2 clone 1278) was 1.13 and 0.875, the odorant receptor activation (OR4N2 clone 1270) was 0.952 and 1.39 and the odorant receptor activation (OR4N4 clone 1277) was 0.907 and 0.875. For the same compound, the odorant receptor activation (OR4N5 clone 1262) was 1.21 and 0.851, the odorant receptor activation (OR4P4 R231C clone 1398) was 0.679 and the odorant receptor activation (OR4P4 clone 1139) was 0.495. For the same compound, the odorant receptor activation (OR4Q3 clone 1411) was 0.727, the odorant receptor activation (OR4S1 clone 1283) was 0.84 and 1.43 and the odorant receptor activation (OR4S2 clone 1175) was 0.736. For the same compound, the odorant receptor activation (OR4X2 clone 1193) was 0.715.

With `CC/C=C\CCO` [cis-3-hexen-1-ol] the odorant receptor activation (OR4M2 clone 1278) was 1.02, the odorant receptor activation (OR4N2 clone 1270) was 0.928 and the odorant receptor activation (OR4N4 clone 1277) was 1.01. The odorant receptor activation (OR4N5 clone 1262) was 1.01, the odorant receptor activation (OR4P4 R231C clone 1398) was 0.222 and the odorant receptor activation (OR4P4 clone 1139) was 1.15. For the same compound, the odorant receptor activation (OR4Q3 clone 1411) was 0.282, the odorant receptor activation (OR4S1 clone 1283) was 0.71 and the odorant receptor activation (OR4S2 clone 1175) was 0.913. It also gave an odorant receptor activation (OR4X2 clone 1193) of 1.05.

Work on `CCCC(=O)O` [butyric acid] yielded an odorant receptor activation (OR4M2 clone 1278) of 1.02, an odorant receptor activation (OR4N2 clone 1270) of 0.92 and an odorant receptor activation (OR4N4 clone 1277) of 1.08. It also gave an odorant receptor activation (OR4N5 clone 1262) of 0.955, an odorant receptor activation (OR4P4 R231C clone 1398) of 0.276 and an odorant receptor activation (OR4P4 clone 1139) of 1.35. It also gave an odorant receptor activation (OR4Q3 clone 1411) of 0.276, an odorant receptor activation (OR4S1 clone 1283) of 0.736 and an odorant receptor activation (OR4S2 clone 1175) of 0.962. The odorant receptor activation (OR4X2 clone 1193) was 1.07.

`CCCCCCCCC=O` [nonyl aldehyde] showed an odorant receptor activation (OR4M2 clone 1278) of 1.18, an odorant receptor activation (OR4N2 clone 1270) of 0.84 and an odorant receptor activation (OR4N4 clone 1277) of 1.29. The odorant receptor activation (OR4N5 clone 1262) was 0.824, the odorant receptor activation (OR4P4 R231C clone 1398) was 0.796 and the odorant receptor activation (OR4P4 clone 1139) was 1.24. It also gave an odorant receptor activation (OR4Q3 clone 1411) of 0.796, an odorant receptor activation (OR4S1 clone 1283) of 0.938 and an odorant receptor activation (OR4S2 clone 1175) of 0.881. For the same compound, the odorant receptor activation (OR4X2 clone 1193) was 1.42.

Work on `C=CC(C)(O)CCC=C(C)C` (stereo not given) [linalool] yielded an odorant receptor activation (OR4M2 clone 1278) of 0.85, an odorant receptor activation (OR4N2 clone 1270) of 0.858 and an odorant receptor activation (OR4N4 clone 1277) of 1.02. For the same compound, the odorant receptor activation (OR4N5 clone 1262) was 0.973, the odorant receptor activation (OR4P4 R231C clone 1398) was 0.934 and the odorant receptor activation (OR4P4 clone 1139) was 1.05. The odorant receptor activation (OR4Q3 clone 1411) was 0.829, the odorant receptor activation (OR4S1 clone 1283) was 0.912 and the odorant receptor activation (OR4S2 clone 1175) was 1.09. It also gave an odorant receptor activation (OR4X2 clone 1193) of 1.32.

`CCCCCCCC=CC=O` [2-decenal] gave an odorant receptor activation (OR4M2 clone 1278) of 2.21, an odorant receptor activation (OR4N2 clone 1270) of 1.36 and an odorant receptor activation (OR4N4 clone 1277) of 1.89. It also gave an odorant receptor activation (OR4N5 clone 1262) of 1.06, an odorant receptor activation (OR4P4 R231C clone 1398) of 1.1 and an odorant receptor activation (OR4P4 clone 1139) of 0.986. It also gave an odorant receptor activation (OR4Q3 clone 1411) of 0.68, an odorant receptor activation (OR4S1 clone 1283) of 1.17 and an odorant receptor activation (OR4S2 clone 1175) of 1.2. For the same compound, the odorant receptor activation (OR4X2 clone 1193) was 1.39.

With `C=C(C)C1CC=C(C)C(=O)C1` (stereo not given) [r-carvone] the odorant receptor activation (OR4M2 clone 1278) was 1.08, the odorant receptor activation (OR4N2 clone 1270) was 0.964 and the odorant receptor activation (OR4N4 clone 1277) was 0.825. The odorant receptor activation (OR4N5 clone 1262) was 0.762, the odorant receptor activation (OR4P4 R231C clone 1398) was 0.836 and the odorant receptor activation (OR4P4 clone 1139) was 0.935. It also gave an odorant receptor activation (OR4Q3 clone 1411) of 1.21, an odorant receptor activation (OR4S1 clone 1283) of 0.772 and an odorant receptor activation (OR4S2 clone 1175) of 1.01. It also gave an odorant receptor activation (OR4X2 clone 1193) of 0.944.

With `CC1=NC(C)SC1C` (stereo not given) the odorant receptor activation (OR4M2 clone 1278) was 0.406, the odorant receptor activation (OR4N2 clone 1270) was 1.43 and the odorant receptor activation (OR4N4 clone 1277) was 0.529. For the same compound, the odorant receptor activation (OR4N5 clone 1262) was 1.21, the odorant receptor activation (OR4P4 R231C clone 1398) was 0.823 and the odorant receptor activation (OR4P4 clone 1139) was 0.59. For the same compound, the odorant receptor activation (OR4Q3 clone 1411) was 1.41, the odorant receptor activation (OR4S1 clone 1283) was 0.662 and the odorant receptor activation (OR4S2 clone 1175) was 0.725. The odorant receptor activation (OR4X2 clone 1193) was 1.1.
